Where “and” joins values, the source holds several entries; their conditions need not be identical. Equal entries are not always repeated. The campaign covered roughly 59,000 compounds. About 6,500 (11%) were called active. This list was built around the results that the source calls inconclusive (neither active nor inactive); the mix of calls is not that of the screen. No stated cut-off is given here; in the data, active means max dye-equivalent concentration above about 10 nM; inconclusive means mostly about 1.1 nM to 9.6 nM; inactive means weaker than that.
test: qHTS Assay for Spectroscopic Profiling in A350 Spectral Region; settings: Compound autofluorescence, 340/450 nm, Alexa 350 dye-equivalents; hits give high values

| Compound | max dye-equivalent concentration |
| --- | --- |
| CCc1ccc(CNc2ccc3c(c2)ncn3C)cc1 | inconclusive: 2.5e-09 M |
| CCc1nc(Nc2ccncc2)c2oc3ccccc3c2n1 | inconclusive: 5.8e-09 M |
| CN1CCCC(OC(=O)CCCC(=O)OC2CCCN(C)C2)C1 (stereo not drawn) | inactive |
| Cc1ccc(-c2noc(CCC(=O)NCCN3CCN(Cc4ccccc4)CC3)n2)cc1 | inactive |
| CN1CCN(Cc2cc(=O)oc3ccc(Cl)cc23)CC1 | inconclusive: 1.2e-09 M |
| CCn1c(SCC(=O)NCC2CCCO2)nnc1-c1c[nH]c2ccccc12 (stereo not drawn) | inconclusive: 1.5e-09 M |
| NC(=O)C(=O)O | inactive |
| Nc1nnnn1/N=C/c1ccccc1C(F)(F)F | inconclusive: 8.2e-09 M |
| CN1C(=O)c2ccc(S(=O)(=O)c3ccc(C(=O)O)cc3)cc2C1=O | inconclusive: 4e-09 M |
| O=c1c(-c2ccc(F)cc2)nc2cnc(Oc3cccc(Cl)c3)nc2n1C[C@H]1CCCO1 | inconclusive: 5.8e-09 M |
| O=c1nc2scc(-c3ccccc3)n2c2ccccc12 | active: 1.3e-08 M |
| CCOc1ccc(-n2c(SCC(=O)NCc3ccco3)nc3c(c2=O)SCC3)cc1 | inconclusive: 2.6e-09 M |
| Cc1ccc2cccc(NC(=O)C(F)(F)F)c2n1 | inconclusive: 1.4e-09 M |
| CC(=O)N1CCC2(CC1)CCN(c1cccc(-c3ccccc3)c1)CC2 | inactive |
| FC(F)(F)c1cnc2c(c1)Nc1ccccc1S2 | inconclusive: 5.1e-09 M |
| CCOC(=O)C1=C(C)NC(=O)NC1c1c(OCC(=O)N2CCCCC2)ccc2ccccc12 (stereo not drawn) | inactive |
| COc1cc(-c2nnc(CSc3nnc4nc(C)cc(C)n34)o2)cc(OC)c1OC | inconclusive: 1.9e-09 M |
| Fc1ccc(Cn2nnnc2CN2CCc3ccccc3C2)cc1 | inconclusive: 2.1e-09 M |
| CN1CCN(C(=O)c2cnn3c(C(F)F)cc(C4CC4)nc23)CC1 | inconclusive: 4.1e-09 M |
| Cc1cnc(C(=O)OCC(=O)c2csc(N3CCCCC3)n2)cn1 | inconclusive: 9.2e-09 M |

| Compound | max dye-equivalent concentration |
| --- | --- |
| Nc1nc(-c2ccc(Cl)cc2Cl)cn1N | active: 1.7e-08 M |
| Cc1sc2ccccc2[n+]1CCC(=O)O | inactive |
| COc1ccc(CNC(=O)COC(=O)c2n[nH]c3ccccc23)cc1OC | inconclusive: 3.5e-09 M |
| COc1ccc(CCN2CNc3c(c(=O)n(C)c(=O)n3C)C2)cc1OC | inconclusive: 2.9e-09 M |
| Cc1nc(N2CCN(C(=O)c3ccc(Cl)cc3)CC2)c(C#N)c2c1COC(C)(C)C2 | active: 4e-08 M |
| O=C1OCCC1Sc1nnc(-c2cccs2)n1Cc1ccccc1 (stereo not drawn) | inconclusive: 1.1e-09 M |
| COc1cccc(C(=O)N(Cc2ccc(N(C)C)cc2)C2CCS(=O)(=O)C2)c1 (stereo not drawn) | inconclusive: 2e-09 M |
| O=C(O)CCC(=O)c1ccc(Cl)cc1 | inactive |
| O=C(OCc1cc2ccccc2[nH]c1=O)C1CCCO1 (stereo not drawn) | inconclusive: 8e-09 M |
| Cc1cc(N)c2ccccc2[n+]1CCCCCCCCCCCCCC[n+]1c(C)cc(N)c2ccccc21 | inconclusive: 8e-09 M |
| CCOC(=O)c1c(NC(=O)CSc2nnc(-c3ccccc3C)n2C)sc(C(C)=O)c1C | active: 1.5e-08 M |
| N#Cc1nc(COc2ccccc2F)oc1NCCCn1ccnc1 | inconclusive: 1.1e-09 M |
| CN1CCN(c2ncc3nc(-c4cccs4)c(=O)n(Cc4ccc(F)cc4)c3n2)CC1 | inconclusive: 8.6e-09 M |
| CN1CCN2c3ccccc3Cc3ccccc3[C@@H]2C1 | inconclusive: 4.3e-09 M and inconclusive: 4.6e-09 M |
| CCOC(=O)c1sc(NC(=O)CSc2nc3c(cc2C#N)CCC3)c(C#N)c1C | inactive |
| CN(Cc1ccccc1)c1nc2c(c(=O)[nH]c(=O)n2C)n1Cc1ccccc1Cl | inconclusive: 2.5e-09 M |
| Cc1ccc(N(C(C)C(=O)Nc2ccc(S(=O)(=O)N3CCOCC3)cc2)S(C)(=O)=O)cc1 (stereo not drawn) | inconclusive: 2.4e-09 M |
| CS(=O)(=O)N1CCC(C(=O)NCC2CCCO2)CC1 (stereo not drawn) | inactive |
| O=C1c2ccccc2C(=O)N1CCCOc1ccccc1 | inconclusive: 3.9e-09 M |
| Cc1cncn1CCc1nc2c3ccccc3nc(=S)n2[nH]1 | inconclusive: 7.6e-09 M |

| Compound | max dye-equivalent concentration |
| --- | --- |
| COc1cccc(Nc2ncc3nc(CCc4ccccc4)c(=O)n(Cc4cccs4)c3n2)c1 | inconclusive: 2.5e-09 M |
| COc1ccccc1-n1c(=O)oc2ccc(Cl)cc2c1=O | inconclusive: 8.4e-09 M |
| O=C(CCCN1CCC(O)(c2ccc(Br)cc2)CC1)c1ccc(F)cc1 | inconclusive: 6.2e-09 M |
| O=C(c1ccc2c(c1)[nH]c(=S)n1c3ccccc3nc21)N1CCN(c2ncccn2)CC1 | inconclusive: 5.2e-09 M |
| c1ccc(-c2ccc(N3CC4(CCNCC4)C3)cc2)cc1 | inactive |
| CCCc1nn(C)c2c1C(c1ccncc1)C(C#N)=C(N)O2 (stereo not drawn) | inconclusive: 1.6e-09 M |
| Cc1cc(C)cc(OCC(=O)NCCN2CCOCC2)c1 | inactive |
| CCOCCn1cnc2sc(C(=O)Nc3nc(C)c(C(=O)OCC)s3)c(C)c2c1=O | inconclusive: 4.7e-09 M |
| O=C1CC(c2ccco2)c2ccc3ccccc3c2N1 (stereo not drawn) | inconclusive: 8.1e-09 M |
| COc1cccc(C=Nc2cc(C)on2)c1O | inactive |
| O=C(CN1CCN(S(=O)(=O)c2ccc(F)cc2)CC1)Nc1ccc(Cl)c(C(F)(F)F)c1 | inactive |
| CCOC(=O)c1cnc2nc(Cc3ccccc3)[nH]n2c1=O | inactive |
| CCc1nnc(NC(=O)CCC(=O)N2CCN(CCc3ccccc3)CC2)s1 | inconclusive: 4.1e-09 M |
| Nn1c(SCC(=O)Nc2ccc(F)cc2F)nnc1-c1cccnc1 | inconclusive: 1.3e-09 M |
| Cc1nn(-c2ccccc2)c2c1/C(=N/O)CC(C)(C)C2 | inconclusive: 3.6e-09 M |
| O=c1c(-c2ccc(F)cc2)nc2cnc(Oc3ccccc3)nc2n1C[C@H]1CCCO1 | inconclusive: 1.2e-09 M |
| O=C(O)c1ccc(S(=O)(=O)N=Nc2c(O)[nH]c3ccccc23)cc1 | inconclusive: 2.5e-09 M |
| O=C1c2ccccc2C(=O)N1c1ccccc1S(=O)C(F)(F)F (stereo not drawn) | inactive |

Pulled by structure from the list above (4):

| Compound | max dye-equivalent concentration |
| --- | --- |
| O=C(c1ccc2c(c1)[nH]c(=S)n1c3ccccc3nc21)N1CCN(c2ncccn2)CC1 | inconclusive: 5.2e-09 M |
| O=C(CCCN1CCC(O)(c2ccc(Br)cc2)CC1)c1ccc(F)cc1 | inconclusive: 6.2e-09 M |
| O=C1CC(c2ccco2)c2ccc3ccccc3c2N1 (stereo not drawn) | inconclusive: 8.1e-09 M |
| O=c1c(-c2ccc(F)cc2)nc2cnc(Oc3ccccc3)nc2n1C[C@H]1CCCO1 | inconclusive: 1.2e-09 M |

From PubChem BioAssay AID590 (National Center for Advancing Translational Sciences (NCATS), 2007)
